{"source": "PubChem BioAssay AID248", "about": "(DTP/NCI, 2004)", "system": "L1210 leukemia ip in BDF1 mice, survival T/C", "test": "NCI In Vivo Anticancer Drug Screen. Data for tumor model L1210 Leukemia (intraperitoneal) in B6D2F1 (BDF1) mice", "settings": "T/C endpoint: mean survival time, higher T/C = longer survival", "key": {"[1]": {"settings": "dose: 400.0 mg/kg/injection, schedule: Q01DX001 (ip), vehicle: saline"}, "[2]": {"settings": "dose: 200.0 mg/kg/injection, schedule: Q01DX009 (ip), vehicle: saline with Tween-80"}, "[3]": {"settings": "dose: 400.0 mg/kg/injection, schedule: Q01DX009 (ip), vehicle: saline with Tween-80"}, "[4]": {"settings": "dose: 100.0 mg/kg/injection, schedule: Q04DX002 (ip), vehicle: Klucel (hydroxypropylcellulose) (HPC)"}, "[5]": {"settings": "dose: 200.0 mg/kg/injection, schedule: Q04DX002 (ip), vehicle: Klucel (hydroxypropylcellulose) (HPC)"}, "[6]": {"settings": "dose: 400.0 mg/kg/injection, schedule: Q04DX002 (ip), vehicle: Klucel (hydroxypropylcellulose) (HPC)"}}, "note": "The list does not hold the whole screen: it gathers tests that were run many times, whatever their T/C, doses with no T/C, and many T/C values between a quarter and a half above the control. Other doses and runs of a compound stand elsewhere. T/C is the treated group as % of the vehicle group. Some entries give survivors of the animals treated and no T/C: the source files T/C as zero there, which appears to mark a toxic dose or a test without result, not a measured value. Some doses without a T/C left all or most animals alive at the check, yet need not have been tolerated: survival well below the control is almost never listed, so the zero probably covers shortened survival too. Survivors were counted at the toxicity check, usually on the fifth day, unless a day is given; later deaths do not show. Schedule codes are those of the source, read here as Q, the interval in days (D) or hours (H), X, the number of doses. Some schedule codes hold Z or #, which are not explained here.", "data": [{"molecule": "ClC(c1ccccc1)c1nc2ccccc2[nH]1", "note": "(stereo not given)", "values": [{"measurement": "survivor count", "setting": "[1]", "value": "2 of 4"}]}, {"molecule": "COC(C)C/C=N/Nc1nnc(N/N=C/CC(C)OC)c2ccccc12", "note": "(stereo not given)", "values": [{"measurement": "survivor count", "setting": "dose: 20.0 mg/kg/injection, schedule: Q01DX001 (ip), vehicle: carboxymethylcellulose (CMC)", "value": "0 of 4"}, {"measurement": "survivor count", "setting": "dose: 40.0 mg/kg/injection, schedule: Q01DX001 (ip), vehicle: carboxymethylcellulose (CMC)", "value": "0 of 4"}, {"measurement": "survivor count", "setting": "dose: 50.0 mg/kg/injection, schedule: Q01DX001 (ip), vehicle: carboxymethylcellulose (CMC)", "value": "0 of 4"}, {"measurement": "survivor count", "setting": "dose: 80.0 mg/kg/injection, schedule: Q01DX001 (ip), vehicle: carboxymethylcellulose (CMC)", "value": "0 of 4"}, {"measurement": "survivor count", "setting": "dose: 100.0 mg/kg/injection, schedule: Q01DX001 (ip), vehicle: carboxymethylcellulose (CMC)", "value": "0 of 4"}, {"measurement": "survivor count", "setting": "dose: 200.0 mg/kg/injection, schedule: Q01DX001 (ip), vehicle: carboxymethylcellulose (CMC)", "value": "0 of 4"}, {"measurement": "survivor count", "setting": "dose: 400.0 mg/kg/injection, schedule: Q01DX001 (ip), vehicle: carboxymethylcellulose (CMC)", "value": "0 of 4"}]}, {"molecule": "NC1CCC(CCCC2CCCC2)CC1", "note": "(stereo not given)", "values": [{"measurement": "survivor count", "setting": "dose: 100.0 mg/kg/injection, schedule: Q01DX009 (ip), vehicle: saline with Tween-80", "value": "0 of 6"}, {"measurement": "survivor count", "setting": "[2]", "value": "0 of 6"}, {"measurement": "survivor count", "setting": "[3]", "value": "0 of 6"}]}, {"molecule": "COC(=O)NS(=O)(=O)C=C(c1ccccc1)c1ccccc1", "values": [{"measurement": "survivor count", "setting": "dose: 400.0 mg/kg/injection, schedule: Q01DX009 (ip), vehicle: Klucel (hydroxypropylcellulose) (HPC)", "value": "0 of 6"}]}, {"molecule": "CCOC(=O)c1cnc2c(ccc3ncccc32)c1NCCCN(CC)CC", "values": [{"measurement": "survivor count", "setting": "dose: 100.0 mg/kg/injection, schedule: Q01DX009 (ip), vehicle: Klucel (hydroxypropylcellulose) (HPC)", "value": "1 of 3"}, {"measurement": "survivor count", "setting": "dose: 200.0 mg/kg/injection, schedule: Q01DX009 (ip), vehicle: Klucel (hydroxypropylcellulose) (HPC)", "value": "0 of 3"}]}, {"molecule": "CCCCn1c(C)nc2c(NN=C(N)N)c3ccccc3c(N=NC(=N)N)c21", "values": [{"measurement": "survivor count", "setting": "dose: 30.0 mg/kg/injection, schedule: Q01DX Z (ip), vehicle: carboxymethylcellulose (CMC)", "value": "1 of 6"}, {"measurement": "survivor count", "setting": "dose: 60.0 mg/kg/injection, schedule: Q01DX Z (ip), vehicle: carboxymethylcellulose (CMC)", "value": "0 of 6"}, {"measurement": "survivor count", "setting": "dose: 120.0 mg/kg/injection, schedule: Q01DX Z (ip), vehicle: carboxymethylcellulose (CMC)", "value": "0 of 6"}]}, {"molecule": "CC(C)c1ccc2ccccc2c1", "values": [{"measurement": "survivor count", "setting": "[3]", "value": "6 of 6"}]}, {"molecule": "CCC(C)C(C=O)(CCN(C)CC)c1cccc2ccccc12", "note": "(stereo not given)", "values": [{"measurement": "survivor count", "setting": "dose: 100.0 mg/kg/injection, schedule: Q04DX002 (ip), vehicle: saline with Tween-80", "value": "1 of 3"}]}, {"molecule": "N=C(N)SCCN1CCCCC1", "values": [{"measurement": "survivor count", "setting": "dose: 300.0 mg/kg/injection, schedule: Q01DX001 (ip), vehicle: acetone", "value": "0 of 6"}]}, {"molecule": "CC(C)=CN1CC2CCCC(CC2)C1", "values": [{"measurement": "survivor count", "setting": "dose: 400.0 mg/kg/injection, schedule: Q04DX003 (ip), vehicle: Klucel (hydroxypropylcellulose) (HPC)", "value": "1 of 6"}]}, {"molecule": "CCCCCCCCCCCCC(C)C(=O)O", "note": "(stereo not given)", "values": [{"measurement": "survivor count", "setting": "[4]", "value": "3 of 3"}]}, {"molecule": "CC(C)C(=O)Nc1cccc(OC(=O)NC(C)(C)C)c1", "values": [{"measurement": "survivor count", "setting": "dose: 100.0 mg/kg/injection, schedule: Q01DX001 (ip), vehicle: saline with Tween-80", "value": "6 of 6"}]}, {"molecule": "O=C(Nc1ccccc1)C1C2C=CC(C2)C1C(=O)Nc1ccccc1", "note": "(stereo not given)", "values": [{"measurement": "survivor count", "setting": "dose: 400.0 mg/kg/injection, schedule: Q04DX003 (ip), vehicle: saline with Tween-80", "value": "3 of 3"}]}, {"molecule": "CCN(CC)CCCC(C)Nc1ccnc2ccc(-c3ccccc3)cc12", "note": "(stereo not given)", "values": [{"measurement": "survivor count", "setting": "dose: 100.0 mg/kg/injection, schedule: Q01DX001 (ip), vehicle: saline", "value": "1 of 4"}, {"measurement": "survivor count", "setting": "dose: 200.0 mg/kg/injection, schedule: Q01DX001 (ip), vehicle: saline", "value": "0 of 4"}, {"measurement": "survivor count", "setting": "[1]", "value": "0 of 4"}]}, {"molecule": "CC1=NC(C)CNC(C)(C)CC(C)=NC(C)CNC(C)(C)C1", "note": "(stereo not given)", "values": [{"measurement": "survivor count", "setting": "[4]", "value": "0 of 3"}, {"measurement": "survivor count", "setting": "[5]", "value": "0 of 3"}, {"measurement": "survivor count", "setting": "[6]", "value": "0 of 3"}]}, {"molecule": "CC(C)(C)OC[CH2][Hg][I]", "values": [{"measurement": "survivor count", "setting": "dose: 50.0 mg/kg/injection, schedule: Q04DX002 (ip), vehicle: Klucel (hydroxypropylcellulose) (HPC)", "value": "0 of 3"}, {"measurement": "survivor count", "setting": "[4]", "value": "0 of 3"}, {"measurement": "survivor count", "setting": "[5]", "value": "0 of 3"}, {"measurement": "survivor count", "setting": "[6]", "value": "0 of 3"}]}, {"molecule": "Cc1ccc(N)c(Br)c1", "values": [{"measurement": "survivor count", "setting": "[2]", "value": "2 of 6"}]}]}
